For assay [1], the target named is NOTCH3 EGF1–5 R133C (CADASIL-mutated truncated human Notch3 extracellular domain, amino acids 1–234) (human) (UniProt Q9UM47). Put plainly: native gel or EMSA; N3 EGF1–5 proteins at 30 µM in 1 × PBS, 37°C for 80 h with and without Bri2 BRICHOS at 1:1 and 1:2 molar; native loading buffer free of DTT and SDS; 6% native PAGE; both purified. (Mobility shift assays separate free from complexed probe on a gel.)

Sequences of proteins named here, by UniProt entry; tags and fusion partners are left off. A change or cut given only in a name is not applied to a line headed by its entry. A line that says so, or that is headed by a name, gives the form on record, which may keep a tag or linker. Residues count along the entry.
NOTCH3 EGF1–5 wildtype (truncated human Notch3 extracellular domain, first five EGF-like repeats, amino acids 1–234) (Q9UM47, residues 40-234): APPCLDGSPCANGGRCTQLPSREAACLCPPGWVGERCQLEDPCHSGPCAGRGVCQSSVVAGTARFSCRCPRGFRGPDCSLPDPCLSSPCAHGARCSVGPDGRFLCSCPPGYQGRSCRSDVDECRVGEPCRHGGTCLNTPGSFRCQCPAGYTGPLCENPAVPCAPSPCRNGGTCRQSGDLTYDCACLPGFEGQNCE
NOTCH3 EGF1–5 R133C (CADASIL-mutated truncated human Notch3 extracellular domain, amino acids 1–234) (Q9UM47, form named): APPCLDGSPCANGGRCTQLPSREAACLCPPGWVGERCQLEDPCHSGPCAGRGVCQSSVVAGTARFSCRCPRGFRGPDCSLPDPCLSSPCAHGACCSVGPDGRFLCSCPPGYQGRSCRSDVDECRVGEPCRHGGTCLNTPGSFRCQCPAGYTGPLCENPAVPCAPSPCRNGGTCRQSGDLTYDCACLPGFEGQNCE

The target is the same in assay [2]. Kind of assay: condition: only in SDS, non-reducing SDS-PAGE (tests disulfide-linked oligomers); non-reducing SDS-PAGE; purified proteins in SDS loading buffer without DTT, 95°C for 5 min, 4–20% gradient gels, Coomassie; compared with reducing conditions (DTT); both purified.
The target of assay [3] is NOTCH3 EGF1–5 wildtype (truncated human Notch3 extracellular domain, first five EGF-like repeats, amino acids 1–234) (human) (UniProt Q9UM47). The assay is described as above.

The record followed here is paper PMC8864064.

Results are given in words; binding and its absence hold for the method and conditions named. Some results given as binding are weak or reduced against the parent protein; the word gives no strength.

“Recombinant human Bri2 BRICHOS domain (from UniProt Q9Y287 137-231) (domain or fragment)”: the binding entry in assay [1] was “binds”.
Take “NOTCH3 EGF1–5 R133C (CADASIL-mutated truncated human Notch3 extracellular domain, amino acids 1–234) (from UniProt Q9UM47 40-234) (domain or fragment)”: the binding result in assay [2] is listed as “no binding”.
“NOTCH3 EGF1–5 wildtype (truncated human Notch3 extracellular domain, first five EGF-like repeats, amino acids 1–234) (from UniProt Q9UM47 40-234) (domain or fragment)”: the binding result in assay [3] is “no binding”.
